At least one compound was matched to its structure with a doubt left. Residues, ends and D or L forms follow the SMILES beside them. *: point of attachment. Stearoyl = CCCCCCCCCCCCCCCCCC(=O)*
Target: T1, mu-opioid receptor (MOR) (Homo sapiens, UniProt P35372)
T1 construct: expressed in transfected cells; host or cells: CHO-K1
Assay: functional cellular cAMP assay on CHO-K1 cell lines expressing MOR, co-administration with orthosteric ligand
Assay type: cell-based
Conditions: log of molar EC50, agonist present morphine, CHO-K1 cells expressing MOR
Procedure: The properties and functionality of these peptidosteroids were validated using standard experimental methods. To evaluate their allosteric modulation capabilities, functional cellular assays were conducted on CHO-K1 cell lines expressing MOR. These assays utilized fluorescent techniques to measure intracellular cAMP levels as a marker of receptor activity.
The peptidosteroids were tested in co-administration with orthosteric ligands, such as morphine and DAMGO, to assess their ability to influence receptor signaling.
The table below provides additional data on the binding motifs (Candidates 1 and 2) and the resulting peptidomimetics (Candidate 3), offering a detailed comparison of their activity. The percentage values are normalized such that 0% corresponds to the activity of the reference agonist at EC20, while 100% represents the maximum activity of the reference agonist.

By UniProt entry, the sequences of proteins in these tests, tags left out.
UniProt P35372, whole entry: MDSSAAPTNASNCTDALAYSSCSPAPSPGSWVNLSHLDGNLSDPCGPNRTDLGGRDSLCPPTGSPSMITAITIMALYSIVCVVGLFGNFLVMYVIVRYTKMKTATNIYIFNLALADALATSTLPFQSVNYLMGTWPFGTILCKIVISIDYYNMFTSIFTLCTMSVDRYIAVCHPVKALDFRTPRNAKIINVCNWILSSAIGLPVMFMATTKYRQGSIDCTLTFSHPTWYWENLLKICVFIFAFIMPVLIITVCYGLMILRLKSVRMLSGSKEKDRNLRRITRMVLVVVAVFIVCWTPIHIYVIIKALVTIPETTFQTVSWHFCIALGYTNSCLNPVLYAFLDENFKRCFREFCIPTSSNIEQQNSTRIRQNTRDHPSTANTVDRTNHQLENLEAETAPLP

## CCCCCCCCCCCCCCCCCC(=O)N[C@@H](Cc1ccc(O)cc1)C(=O)N1CCC[C@H]1C(=O)N[C@@H](Cc1c[nH]c2ccccc12)C(=O)N[C@@H](Cc1ccccc1)C(=O)N[C@@H](Cc1ccc(O)cc1)C(=O)N[C@@H](CC(C)C)C(=O)O (Stearoyl-YPWFYL-OH; C-terminus assumed)
  logEC50(M): −6.52 M
